Among the data in publication PMC11334304 are binding values, retold here.

The target in this experiment is T1, Aurora kinase A (AURKA) (human (endogenous in COLO205 and HT29)) (UniProt O14965).
T1 sequence: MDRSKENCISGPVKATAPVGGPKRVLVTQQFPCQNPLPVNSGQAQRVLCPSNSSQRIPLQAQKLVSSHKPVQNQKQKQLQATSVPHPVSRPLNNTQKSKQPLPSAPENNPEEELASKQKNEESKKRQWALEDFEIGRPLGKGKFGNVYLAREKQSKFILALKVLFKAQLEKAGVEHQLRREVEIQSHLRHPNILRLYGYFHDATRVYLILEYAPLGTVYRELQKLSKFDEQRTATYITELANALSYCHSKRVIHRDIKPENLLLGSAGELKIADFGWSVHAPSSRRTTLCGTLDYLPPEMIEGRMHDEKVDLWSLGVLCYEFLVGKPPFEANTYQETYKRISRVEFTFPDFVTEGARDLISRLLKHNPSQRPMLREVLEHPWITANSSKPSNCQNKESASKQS
Kind of experiment: co-IP; endogenous proteins; lysates of COLO205 and HT29 cells, untreated or treated with AT9283 (15 nM, 100 nM), in IP-RIPA buffer (1% Triton, 150 mM NaCl, 50 mM Tris/HCl, 1 mM EDTA); 700 ug lysate per sample; IP overnight at 4 °C with anti-pMKK3 or anti-Aurora A, Protein G PLUS-A agarose; blot for MKK3 and Aurora A.

No constants are given. Whether binding was seen depends on the method and setting. Binding seen in cells or lysates may run through a third protein. Some results given as binding are weak or reduced against the parent protein; the word gives no strength.

B1: Mitogen activated protein kinase kinase 3 (MKK3) (protein, UniProt P46734 1-347)
chain: MESPASSQPASMPQSKGKSKRKKDLRISCMSKPPAPNPTPPRNLDSRTFITIGDRNFEVEADDLVTISELGRGAYGVVEKVRHAQSGTIMAVKRIRATVNSQEQKRLLMDLDINMRTVDCFYTVTFYGALFREGDVWICMELMDTSLDKFYRKVLDKNMTIPEDILGEIAVSIVRALEHLHSKLSVIHRDVKPSNVLINKEGHVKMCDFGISGYLVDSVAKTMDAGCKPYMAPERINPELNQKGYNVKSDVWSLGITMIEMAILRFPYESWGTPFQQLKQVVEEPSPQLPADRFSPEFVDFTAQCLRKNPAERMSYLELMEHPFFTLHKTKKTDIAAFVKEILGEDS
Take B1: the binding entry was “binds”.
